Source: publication doi:10.1101/2021.05.30.446361
Read-outs that look alike come from different tables or passages of the source. No constants are given. Whether binding was seen depends on the method and setting. In cells and extracts the contact can be indirect. A result given as binding can be weak or reduced; the word gives no strength.

Amino acid sequences for entries named in this document (tags omitted). A change or cut given only in a name is not applied to a line headed by its entry.
UniProt Q6ZTU2: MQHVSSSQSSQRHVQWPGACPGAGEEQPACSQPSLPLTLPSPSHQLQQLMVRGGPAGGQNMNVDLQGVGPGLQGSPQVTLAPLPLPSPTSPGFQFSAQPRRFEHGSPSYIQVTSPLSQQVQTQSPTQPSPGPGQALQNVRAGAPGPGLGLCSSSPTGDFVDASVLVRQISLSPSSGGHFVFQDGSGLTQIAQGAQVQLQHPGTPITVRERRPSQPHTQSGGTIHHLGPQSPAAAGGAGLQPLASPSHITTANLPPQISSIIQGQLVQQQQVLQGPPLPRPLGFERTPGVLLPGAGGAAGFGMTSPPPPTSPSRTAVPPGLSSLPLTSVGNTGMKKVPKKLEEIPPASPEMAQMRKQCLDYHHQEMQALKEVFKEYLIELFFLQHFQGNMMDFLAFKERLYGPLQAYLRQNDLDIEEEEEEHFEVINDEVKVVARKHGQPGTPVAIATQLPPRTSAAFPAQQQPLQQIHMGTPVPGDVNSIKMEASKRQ
UniProt Q9Y265: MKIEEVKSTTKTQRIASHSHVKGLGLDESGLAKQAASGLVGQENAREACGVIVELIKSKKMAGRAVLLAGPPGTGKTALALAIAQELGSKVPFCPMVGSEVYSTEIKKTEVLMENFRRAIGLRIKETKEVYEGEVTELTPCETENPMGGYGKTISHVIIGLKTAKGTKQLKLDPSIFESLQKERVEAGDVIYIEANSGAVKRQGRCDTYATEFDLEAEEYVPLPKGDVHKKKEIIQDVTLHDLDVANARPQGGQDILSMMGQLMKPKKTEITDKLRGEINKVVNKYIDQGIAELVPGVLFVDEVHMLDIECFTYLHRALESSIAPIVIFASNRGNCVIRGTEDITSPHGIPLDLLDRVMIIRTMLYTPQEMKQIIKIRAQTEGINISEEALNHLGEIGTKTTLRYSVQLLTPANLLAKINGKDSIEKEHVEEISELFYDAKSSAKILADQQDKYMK
UniProt Q9Y230: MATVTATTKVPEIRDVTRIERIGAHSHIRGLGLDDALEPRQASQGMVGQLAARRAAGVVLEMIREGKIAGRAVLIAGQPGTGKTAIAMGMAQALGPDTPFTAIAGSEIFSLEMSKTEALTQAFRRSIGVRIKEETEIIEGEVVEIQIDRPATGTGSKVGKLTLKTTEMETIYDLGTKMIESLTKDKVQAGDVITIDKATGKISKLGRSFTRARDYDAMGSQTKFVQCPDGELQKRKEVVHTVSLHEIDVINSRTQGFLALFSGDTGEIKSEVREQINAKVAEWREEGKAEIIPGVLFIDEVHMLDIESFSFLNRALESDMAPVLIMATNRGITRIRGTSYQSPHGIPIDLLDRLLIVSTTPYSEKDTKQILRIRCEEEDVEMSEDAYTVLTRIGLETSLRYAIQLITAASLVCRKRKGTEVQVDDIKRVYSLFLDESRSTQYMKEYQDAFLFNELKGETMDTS
UniProt P01106: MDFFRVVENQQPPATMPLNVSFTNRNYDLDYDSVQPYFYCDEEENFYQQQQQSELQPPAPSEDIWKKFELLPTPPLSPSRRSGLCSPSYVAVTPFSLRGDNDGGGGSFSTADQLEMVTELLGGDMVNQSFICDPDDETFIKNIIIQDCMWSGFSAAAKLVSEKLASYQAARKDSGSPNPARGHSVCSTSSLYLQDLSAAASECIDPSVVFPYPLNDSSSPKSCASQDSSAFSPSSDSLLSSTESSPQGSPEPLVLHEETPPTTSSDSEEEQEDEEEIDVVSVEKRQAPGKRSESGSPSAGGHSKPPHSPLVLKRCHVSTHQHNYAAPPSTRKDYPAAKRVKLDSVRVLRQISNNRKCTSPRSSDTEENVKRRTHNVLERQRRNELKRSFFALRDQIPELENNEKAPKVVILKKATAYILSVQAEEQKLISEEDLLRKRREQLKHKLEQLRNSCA
UniProt Q9H0E9: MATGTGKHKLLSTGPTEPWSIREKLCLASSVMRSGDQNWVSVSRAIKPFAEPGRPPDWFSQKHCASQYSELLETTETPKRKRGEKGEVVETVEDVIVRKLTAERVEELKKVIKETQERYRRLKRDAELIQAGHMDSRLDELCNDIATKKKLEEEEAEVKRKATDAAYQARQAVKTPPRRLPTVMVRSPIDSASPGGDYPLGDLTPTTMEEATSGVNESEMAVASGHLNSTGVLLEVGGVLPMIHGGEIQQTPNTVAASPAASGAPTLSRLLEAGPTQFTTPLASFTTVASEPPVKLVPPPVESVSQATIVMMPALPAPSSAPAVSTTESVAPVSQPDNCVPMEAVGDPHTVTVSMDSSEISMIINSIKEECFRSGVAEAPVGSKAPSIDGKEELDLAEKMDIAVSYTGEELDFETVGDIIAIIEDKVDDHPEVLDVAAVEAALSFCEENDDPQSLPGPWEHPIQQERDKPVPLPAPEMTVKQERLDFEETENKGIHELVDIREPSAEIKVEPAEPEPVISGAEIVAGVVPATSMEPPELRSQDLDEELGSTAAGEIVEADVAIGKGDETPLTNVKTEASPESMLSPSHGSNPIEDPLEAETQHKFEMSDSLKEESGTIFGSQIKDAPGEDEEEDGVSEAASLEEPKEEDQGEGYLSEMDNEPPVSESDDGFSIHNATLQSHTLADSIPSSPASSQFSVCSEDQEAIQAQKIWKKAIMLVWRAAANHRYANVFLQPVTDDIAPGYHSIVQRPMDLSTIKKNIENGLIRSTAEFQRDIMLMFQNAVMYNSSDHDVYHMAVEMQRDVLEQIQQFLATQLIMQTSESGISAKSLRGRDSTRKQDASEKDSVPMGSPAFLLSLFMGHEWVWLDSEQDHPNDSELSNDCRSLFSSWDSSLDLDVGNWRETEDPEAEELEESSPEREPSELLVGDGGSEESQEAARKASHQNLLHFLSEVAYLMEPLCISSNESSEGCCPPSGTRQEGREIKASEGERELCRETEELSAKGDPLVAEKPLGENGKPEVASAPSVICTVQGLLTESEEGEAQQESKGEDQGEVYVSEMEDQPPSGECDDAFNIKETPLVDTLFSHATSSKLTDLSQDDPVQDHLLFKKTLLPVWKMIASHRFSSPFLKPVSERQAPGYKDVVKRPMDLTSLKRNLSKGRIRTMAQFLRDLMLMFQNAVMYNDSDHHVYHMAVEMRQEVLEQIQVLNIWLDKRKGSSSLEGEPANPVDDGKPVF
UniProt P51532: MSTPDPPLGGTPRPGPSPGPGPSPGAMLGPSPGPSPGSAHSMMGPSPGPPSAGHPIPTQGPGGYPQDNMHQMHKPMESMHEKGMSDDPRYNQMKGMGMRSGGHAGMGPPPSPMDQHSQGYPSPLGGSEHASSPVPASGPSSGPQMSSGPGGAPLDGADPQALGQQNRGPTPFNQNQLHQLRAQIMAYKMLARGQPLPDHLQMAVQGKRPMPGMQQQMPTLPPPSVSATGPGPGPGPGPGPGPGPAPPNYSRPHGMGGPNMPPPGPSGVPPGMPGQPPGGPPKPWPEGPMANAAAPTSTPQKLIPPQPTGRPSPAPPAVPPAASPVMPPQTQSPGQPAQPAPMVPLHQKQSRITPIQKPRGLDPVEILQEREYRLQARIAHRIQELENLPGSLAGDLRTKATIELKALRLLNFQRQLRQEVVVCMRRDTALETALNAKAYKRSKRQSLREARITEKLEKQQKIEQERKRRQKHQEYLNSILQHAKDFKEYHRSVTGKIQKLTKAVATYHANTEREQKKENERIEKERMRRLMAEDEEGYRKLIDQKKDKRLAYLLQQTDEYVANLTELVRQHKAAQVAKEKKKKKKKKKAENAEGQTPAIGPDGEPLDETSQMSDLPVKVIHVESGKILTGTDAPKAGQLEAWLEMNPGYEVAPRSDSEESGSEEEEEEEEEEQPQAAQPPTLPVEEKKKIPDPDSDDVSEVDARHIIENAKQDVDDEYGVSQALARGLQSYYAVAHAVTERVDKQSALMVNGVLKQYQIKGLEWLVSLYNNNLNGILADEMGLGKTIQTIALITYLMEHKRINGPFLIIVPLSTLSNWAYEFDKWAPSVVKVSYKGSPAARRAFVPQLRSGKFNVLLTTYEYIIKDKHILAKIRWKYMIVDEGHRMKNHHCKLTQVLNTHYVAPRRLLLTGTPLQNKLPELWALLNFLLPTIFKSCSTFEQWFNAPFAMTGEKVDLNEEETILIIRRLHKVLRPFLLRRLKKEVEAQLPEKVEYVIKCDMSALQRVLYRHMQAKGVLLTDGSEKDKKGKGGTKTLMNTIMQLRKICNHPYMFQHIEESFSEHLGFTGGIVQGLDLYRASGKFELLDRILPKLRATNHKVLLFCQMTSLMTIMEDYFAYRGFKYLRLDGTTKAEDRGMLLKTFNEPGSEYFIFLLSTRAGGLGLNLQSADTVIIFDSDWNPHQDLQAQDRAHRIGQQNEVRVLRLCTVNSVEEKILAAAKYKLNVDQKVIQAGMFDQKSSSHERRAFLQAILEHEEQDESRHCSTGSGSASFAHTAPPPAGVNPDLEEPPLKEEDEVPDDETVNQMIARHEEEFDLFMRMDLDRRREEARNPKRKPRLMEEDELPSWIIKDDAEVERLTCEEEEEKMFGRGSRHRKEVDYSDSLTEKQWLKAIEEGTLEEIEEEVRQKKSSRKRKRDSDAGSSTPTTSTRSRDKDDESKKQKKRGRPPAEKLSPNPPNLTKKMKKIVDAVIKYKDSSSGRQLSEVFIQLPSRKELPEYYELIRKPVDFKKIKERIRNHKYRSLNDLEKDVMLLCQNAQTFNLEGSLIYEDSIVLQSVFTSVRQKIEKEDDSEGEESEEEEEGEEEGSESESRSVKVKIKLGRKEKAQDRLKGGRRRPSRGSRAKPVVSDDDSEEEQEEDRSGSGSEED

How the values were obtained:
Assay in all cases: co-IP
[1] = target: FLAG-EP400NL deletion mutant Δ1-50 (human) (UniProt Q6ZTU2)
[2] = target: FLAG-EP400NL deletion mutant Δ141-156 (human) (UniProt Q6ZTU2)
[3] = target: FLAG-EP400NL deletion mutant Δ246-260 (human) (UniProt Q6ZTU2)
[4] = target: FLAG-EP400NL deletion mutant Δ360-419 (human) (UniProt Q6ZTU2)
[5] = target: FLAG-EP400NL, full-length wild type (human) (UniProt Q6ZTU2)
[6] = target: RuvBL1 (human (endogenous in HEK293T, Flp-In T-REx and HeLa cells)) (UniProt Q9Y265)
[7] = target: RuvBL2 (TIP48) (human (endogenous in Flp-In T-REx, HEK293T and HeLa cells)) (UniProt Q9Y230)
[8] = target: cMyc (human (endogenous in Flp-In T-REx cells)) (UniProt P01106)
[9] = target: TAP-tagged EP400NL (EP400 N-terminal-Like) (human) (UniProt Q6ZTU2)
[10] = target: FLAG-EP400NL, full-length wild type (human) (UniProt Q6ZTU2); remark: listed apart in the source

Measured: binding

BRD8 (Bromodomain-containing protein 8) (from UniProt Q9H0E9 1-1235)
binds: [1] | [2] | [3] | [4] | [5]

TAP-tagged EP400NL (EP400 N-terminal-Like) (from UniProt Q6ZTU2)
binds: [6] | [7] | [8]

RuvBL1 (from UniProt Q9Y265 1-456)
binds: [5] | [9]

BRG1, core ATPase subunit of the human SWI/SNF chromatin remodelling complexes (from UniProt P51532 1-1647)
not listed: [6] | [7] | [8]
binds: all other assays above
